From PubChem BioAssay AID504444 (National Center for Advancing Translational Sciences (NCATS), 2011)
Hit rate of the full screen: of about 360,000 compounds, about 7,500 (2.1%) were called active. The shares of active, inactive and inconclusive entries below differ from those in the screen. The call rests on the fitted dose curve; in most records, active means well fitted inhibition curve with a large enough effect; inconclusive means small, poorly fitted or top-dose-only effect, or effect the other way; inactive means flat fitted curve, though single readings scatter. Where the call is inconclusive, the potency comes from a doubtful curve fit.

Experiment: Nrf2 qHTS screen for inhibitors; further: nearly all actives have a fitted effect of over 60% in size
Details: A549 ARE-Fluc reporter, luciferase luminescence, 18-24 h; series mostly up to 46 µM
How it was run: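 Cells were seeded and rested 2 h, then exposed to compounds for 18-24 h. CellTiter-Fluor was read first as a viability measure. BugLite was added 15 min before the final luminescent read of ARE-luciferase activity in A549 cells.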
Potency means the concentration at half of the fitted maximal effect.

Row | SMILES | Potency
1 | Nc1ccc2oc(-c3ccccn3)nc2c1 | inactive
2 | CC(=O)Nc1ccc(NC(=O)c2ccc(NS(=O)(=O)c3cc(C(C)(C)C)ccc3C)cc2)cc1 | inconclusive: 5.8 µM [activator, full curve, poor fit]
3 | Cc1c(NC(=O)c2ccc(Cl)nc2)cccc1-c1nc2cccnc2s1 | inconclusive: 16.4 µM [falling, single point]
4 | COc1ccc(N2CCN(C(=O)c3ccc(NS(=O)(=O)c4cccc(F)c4)cc3)CC2)cc1 | inconclusive: 29.1 µM [falling, single point]
5 | CCC(CC)COC(=O)C1=C(C)NC(=O)NC1c1ccc2c(c1)OCO2 (stereo not drawn) | inconclusive: 29.1 µM [falling, single point]
6 | COc1cccc(-c2nnc3n2N=C(c2ccc(OC)cc2OC)CS3)c1 | inconclusive: 23.1 µM [falling, single point]
7 | CCC(=O)Nc1cccc(NC(=S)NC(=O)c2cccc(C)c2)c1 | inconclusive: 4.61 µM [activator, single point]
8 | O=C(Nc1ccccn1)c1csc2c1CCCC2 | inconclusive: 16.4 µM [activator, partial curve]
9 | Cc1ccc(CCc2nnc(SCC(=O)Nc3ccccc3Cl)n2-c2ccccc2)o1 | inconclusive: 29.1 µM [falling, single point]
10 | O=C(O)c1ccc2noc(-c3ccccc3)c2c1 | inconclusive: 0.651 µM [activator, partial curve, poor fit]
11 | CN(C(=O)c1ccc(NC(=O)Cc2cccc(NC(=O)C3CCCN(C(=O)CCc4ccccc4)C3)c2)cc1)C1CCCC1 (stereo not drawn) | active: 14.6 µM
12 | CC(C)(C)C(=O)Nc1ccc(-c2cc3cc(Cl)ccc3o2)cc1 | inconclusive: 3.26 µM [activator, full curve]
13 | COc1cc(F)c(S(=O)(=O)N2CCN(S(=O)(=O)c3ccco3)CC2)c(F)c1 | inactive
14 | O=C(NC1CCN(Cc2ccccc2)CC1)c1cccc(S(=O)(=O)Nc2cc(C(F)(F)F)ccc2Cl)c1 | inconclusive: 23.1 µM [falling, partial curve, poor fit]
15 | CC1CCCN(CCCNS(=O)(=O)c2cc(Br)cc3c2N(C(=O)C2CC2)CC3)C1 (stereo not drawn) | inconclusive: 3.66 µM [activator, partial curve, poor fit]
16 | COc1ccc(-c2nc(CNS(=O)(=O)c3ccccc3)cs2)cc1 | inconclusive: 29.1 µM [falling, single point]
17 | COc1cccc(CNC(=O)c2cc3c(s2)-c2c(C)cccc2OC3)c1 | inconclusive: 8.2 µM [falling, partial curve, poor fit]
18 | CCOC(=O)c1c(C)[nH]c(C(=O)OCc2ccc(F)cc2)c1C | inconclusive: 2.06 µM [activator, partial curve]
19 | CCN(CC)S(=O)(=O)c1ccc(OC)c(NC(=O)c2cc(=O)[nH]c3ccccc23)c1 | inconclusive: 9.2 µM [falling, partial curve]
20 | COC(=O)C1CCN(CC(=O)Nc2ccccc2Sc2ccccc2)CC1 | inconclusive: 29.1 µM [falling, partial curve, poor fit]
21 | Brc1ccc(OCc2nc3ccccc3[nH]2)cc1 | inconclusive: 3.66 µM [activator, full curve]

Part of the list above, reformatted.

| Row | SMILES | Potency |
| --- | --- | --- |
| 13 | COc1cc(F)c(S(=O)(=O)N2CCN(S(=O)(=O)c3ccco3)CC2)c(F)c1 | inactive |
| 18 | CCOC(=O)c1c(C)[nH]c(C(=O)OCc2ccc(F)cc2)c1C | inconclusive: 2.06 µM [activator, partial curve] |
| 20 | COC(=O)C1CCN(CC(=O)Nc2ccccc2Sc2ccccc2)CC1 | inconclusive: 29.1 µM [falling, partial curve, poor fit] |

The list continues:

Row | SMILES | Potency
22 | O=C(NC(=S)N1CCOCC1)C12CCC3CC(CC(C3)C1)C2 | inconclusive: 29.1 µM [falling, single point]
23 | Oc1ccc(C[C@H]2CNC(=S)N2CC2CCCN2C[C@H](Cc2ccccc2)N2C[C@H](Cc3ccc(O)cc3)N(CCc3ccccc3)C2=S)cc1 (stereo partly drawn) | active: 14.6 µM
24 | O=C(NC(=S)NCc1ccc(F)cc1)c1ccccc1 | inactive
25 | O=C(NC1CCN(c2ncccn2)CC1)c1ccccc1Cl | inconclusive: 32.6 µM [falling, partial curve, poor fit]
26 | Cc1ccc(CCN2CC(C(=O)N3CCN(c4ccc(F)cc4)CC3)CC2=O)cc1 (stereo not drawn) | inconclusive: 6.51 µM [falling, partial curve]
27 | CC(C)C(NC(=O)C1CCC(C(C)(C)C)CC1)C(=O)NCCCN1CCCCC1 (stereo not drawn) | inconclusive: 1.84 µM [falling, partial curve]
28 | C=C[C@@H]1c2c(F)cccc2N(S(=O)(=O)c2ccc(C)cc2)[C@H](c2ccc(OC(C)=O)cc2)C1(C#N)C#N | inconclusive: 29.1 µM [falling, single point]
29 | N#CC1=C(N)N=C(SCc2cccc3ccccc23)C(C(N)=O)C12CCCCC2 (stereo not drawn) | inconclusive: 23.1 µM [falling, single point]
30 | O=C(COC(=O)Cc1ccc(F)cc1)NC1CCS(=O)(=O)C1 (stereo not drawn) | inactive
31 | CCc1ccc(C2CC(=O)Nc3cc4c(cc32)OCO4)cc1 (stereo not drawn) | inconclusive: 23.1 µM [falling, partial curve, poor fit]
32 | Cc1cc(C)cc(N(CC(=O)N/N=C/c2ccncc2)S(=O)(=O)c2ccccc2)c1 | inactive
33 | Cc1ccc(C)c(Nc2nc3c(S(=O)(=O)c4ccc(C(C)C)cc4)nnn3c3ccsc23)c1 | active: 16.4 µM
34 | CN(Cc1cccnc1)C(=O)c1cc(COc2ccc3ncccc3c2)on1 | active: 4.61 µM
35 | CC(=O)Nc1ccc(Nc2cc(C)nc3c(-c4ccc(Cl)cc4)cnn23)cc1 | inconclusive: 1.16 µM [activator, full curve]
36 | COC(=O)Nc1ccc(S(=O)(=O)N2CCCCC2C(=O)NCc2ccco2)cc1 (stereo not drawn) | inconclusive: 7.31 µM [falling, single point]
37 | CC(NC(=O)CN(C)CC(=O)Nc1ccc(Cl)cc1)c1ccc(F)cc1 (stereo not drawn) | inconclusive: 20.6 µM [falling, single point]
38 | Cc1cc(C)n(C(C)CC(=O)Nc2ccc(-c3ccno3)cc2)n1 (stereo not drawn) | inconclusive: 16.4 µM [falling, partial curve, poor fit]
39 | CCOC(=O)N1C(=O)[C@@](CC)(c2ccccc2)N1C(=O)OCC | inconclusive: 25.9 µM [falling, single point]
40 | Cc1ccc(CSc2nnc(-c3cccnc3)o2)cc1 | inactive
41 | CCOC(=O)C1=C(O)c2ccccc2C(=O)/C1=C\c1ccc(CC)cc1 | inconclusive: 6.51 µM [activator, single point]
42 | CC1=C(C(=O)N2CCN(c3cccc(C(F)(F)F)c3)CC2)C2(CCCCC2)OC1=O | inconclusive: 0.82 µM [falling, full curve, poor fit]

Row | SMILES | Potency
43 | CC(=O)c1ccc(-c2cccs2)s1 | inactive
44 | Cc1cc(C)nc(SCC(=O)Nc2ccc(S(=O)(=O)N3CCCCC3)cc2)n1 | inconclusive: 14.6 µM [falling, partial curve, poor fit]
45 | CC1=C(C)/C(=N/OC(=O)c2cccc([N+](=O)[O-])c2)C=CC1=O | inconclusive: 29.1 µM [falling, single point]
46 | COC(=O)c1oc2ccccc2c1-n1cccc1 | inconclusive: 29.1 µM [activator, single point]
47 | CN(C(=O)c1cccc(NC(=O)Cc2ccc(NC(=O)C3CCCN(C(=O)C4CC4)C3)cc2)c1)C1CCC1 (stereo not drawn) | inactive
48 | COC(=O)CS(=O)(=O)c1nnc([C@H](Cc2ccccc2)NC(=O)OC(C)(C)C)o1 | inconclusive: 20.6 µM [falling, single point]
49 | CCN(C(=O)c1cc2c(=O)[nH]c3ccc(C)cc3c2s1)c1cccc(C)c1 | inconclusive: 23.1 µM [falling, single point]
50 | COC(=O)CCN(C(=O)c1cccc([N+](=O)[O-])c1)c1ccccn1 | inconclusive: 9.2 µM [falling, partial curve, poor fit]
51 | CCOc1ccc(NC(=O)CC2C(=O)OCCN2CC)cc1 (stereo not drawn) | inactive
52 | COC(=O)Cc1[nH]n(-c2nc3ccccc3s2)c(=O)c1C(C)=Nc1ccc(OC)cc1 | inconclusive: 29.1 µM [falling, single point]
53 | Cc1nc2sc3c(NCc4ccco4)ncnc3c2c2c1COC(C)(C)C2 | inconclusive: 23.1 µM [falling, partial curve, poor fit]
54 | Cc1nn(-c2ccccn2)c2c1C(=O)C(Br)CC2 (stereo not drawn) | inconclusive: 9.2 µM [falling, partial curve]
55 | CN1CCN(C2=Nc3ccccc3Oc3ccc(Cl)cc32)CC1 | inconclusive: 18.4 µM [falling, partial curve, poor fit]
56 | O=c1c(-c2ccc(F)cc2)coc2c3c(ccc12)OCCO3 | inconclusive: 0.13 µM [activator, full curve, poor fit]
57 | COc1ccc2cc(C(N)=O)/c(=N\NC(=O)c3ccccc3)oc2c1 | inconclusive: 8.2 µM [activator, partial curve]
58 | COCCCn1c(C(=O)N2CC(C)OC(C)C2)cc2c(=O)n3cccc(C)c3nc21 (stereo not drawn) | inactive
59 | COc1ccc(N2CCN(Cc3nc(-c4ccc(Cl)cc4Cl)no3)CC2)cc1 | inconclusive: 32.6 µM [falling, partial curve, poor fit]
60 | COc1ccc(NC(=O)Cn2nnc(-c3ccccc3NS(=O)(=O)c3ccccc3)n2)cc1 | active: 20.6 µM
61 | CCCCCn1c(=O)[nH]c2cc(C(=O)N3CCN(c4cccc(C)c4)C(C)C3)ccc2c1=O (stereo not drawn) | inconclusive: 4.11 µM [falling, partial curve, poor fit]
62 | Cc1ccc2nc(-c3ccc(NC(=O)CSc4nc(N)cc(=O)[nH]4)cc3)sc2c1 | inconclusive: 5.17 µM [activator, full curve]
63 | CCc1nnc(NC(=O)CSc2nnc3c(n2)[nH]c2ccccc23)s1 | inconclusive: 0.0651 µM [falling, full curve, poor fit]
